PfKRS1: 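Lysine-tRNA ligase, Plasmodium falciparum 3D7 (UniProt Q8IDJ8). Enzyme assay of the cytosolic lysyl-tRNA synthetase in 384-well plates, read by luminescence. Concentration: 30 µM. Higher reads as stronger inhibition, judged from the few compounds that gave an IC50. Of about 69,000 compounds tested this way, about 49 (0.071%) reached 50% or more in at least one test.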
TcHisRS: 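Enzyme assay of histidyl-tRNA synthetase; the read-out is not stated. Target: Histidine-tRNA ligase, Trypanosoma cruzi CL Brener (UniProt Q4DA54). Compounds at 30 µM. The record gives no direction; compounds that gave an IC50 in retests scored well above the rest, so higher reads as stronger inhibition. Size under these conditions: about 69,000 compounds, about 31 of them at 50% or above in at least one test.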
Pks13 thioesterase: 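Polyketide synthase Pks13, Mycobacterium tuberculosis (UniProt I6X8D2). Enzyme assay of the thioesterase domain of polyketide synthase 13; the read-out is not stated. Tested at 30 µM. The record gives no direction; the compounds picked for IC50 retests had high values, so higher reads as stronger inhibition. About 67,000 compounds were tested under these conditions; 0.46% (about 300) showed 50% or more at least once.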

By UniProt entry, the sequences of proteins in these tests, tags left out. Residues count along the entry.
UniProt Q8IDJ8, 1-583: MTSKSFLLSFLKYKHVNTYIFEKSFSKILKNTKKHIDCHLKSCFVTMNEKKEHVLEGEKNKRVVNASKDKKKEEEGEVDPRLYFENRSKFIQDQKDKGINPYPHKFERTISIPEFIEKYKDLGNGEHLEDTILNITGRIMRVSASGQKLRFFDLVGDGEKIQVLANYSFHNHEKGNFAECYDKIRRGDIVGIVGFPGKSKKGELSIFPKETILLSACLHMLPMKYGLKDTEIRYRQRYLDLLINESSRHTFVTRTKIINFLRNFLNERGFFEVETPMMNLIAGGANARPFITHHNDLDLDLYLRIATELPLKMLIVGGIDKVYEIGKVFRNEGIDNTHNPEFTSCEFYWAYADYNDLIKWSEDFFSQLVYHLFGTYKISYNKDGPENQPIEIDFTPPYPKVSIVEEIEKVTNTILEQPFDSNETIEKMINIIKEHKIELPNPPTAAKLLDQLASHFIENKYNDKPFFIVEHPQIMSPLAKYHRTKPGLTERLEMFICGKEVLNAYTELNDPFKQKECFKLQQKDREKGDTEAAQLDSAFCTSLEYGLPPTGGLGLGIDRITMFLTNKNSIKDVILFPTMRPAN
UniProt Q4DA54, 1-478: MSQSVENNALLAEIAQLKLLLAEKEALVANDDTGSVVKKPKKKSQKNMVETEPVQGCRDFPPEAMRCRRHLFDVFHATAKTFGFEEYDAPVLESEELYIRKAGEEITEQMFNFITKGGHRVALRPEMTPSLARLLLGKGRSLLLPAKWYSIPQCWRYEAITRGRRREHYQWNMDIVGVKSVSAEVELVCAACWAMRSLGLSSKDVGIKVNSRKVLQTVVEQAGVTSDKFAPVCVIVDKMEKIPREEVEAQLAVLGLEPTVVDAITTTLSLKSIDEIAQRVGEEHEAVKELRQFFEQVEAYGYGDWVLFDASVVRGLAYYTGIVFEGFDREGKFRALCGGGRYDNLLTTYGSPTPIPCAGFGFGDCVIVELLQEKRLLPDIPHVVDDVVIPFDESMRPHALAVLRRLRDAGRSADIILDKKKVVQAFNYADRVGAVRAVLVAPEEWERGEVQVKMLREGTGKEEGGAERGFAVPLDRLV
UniProt I6X8D2, whole entry: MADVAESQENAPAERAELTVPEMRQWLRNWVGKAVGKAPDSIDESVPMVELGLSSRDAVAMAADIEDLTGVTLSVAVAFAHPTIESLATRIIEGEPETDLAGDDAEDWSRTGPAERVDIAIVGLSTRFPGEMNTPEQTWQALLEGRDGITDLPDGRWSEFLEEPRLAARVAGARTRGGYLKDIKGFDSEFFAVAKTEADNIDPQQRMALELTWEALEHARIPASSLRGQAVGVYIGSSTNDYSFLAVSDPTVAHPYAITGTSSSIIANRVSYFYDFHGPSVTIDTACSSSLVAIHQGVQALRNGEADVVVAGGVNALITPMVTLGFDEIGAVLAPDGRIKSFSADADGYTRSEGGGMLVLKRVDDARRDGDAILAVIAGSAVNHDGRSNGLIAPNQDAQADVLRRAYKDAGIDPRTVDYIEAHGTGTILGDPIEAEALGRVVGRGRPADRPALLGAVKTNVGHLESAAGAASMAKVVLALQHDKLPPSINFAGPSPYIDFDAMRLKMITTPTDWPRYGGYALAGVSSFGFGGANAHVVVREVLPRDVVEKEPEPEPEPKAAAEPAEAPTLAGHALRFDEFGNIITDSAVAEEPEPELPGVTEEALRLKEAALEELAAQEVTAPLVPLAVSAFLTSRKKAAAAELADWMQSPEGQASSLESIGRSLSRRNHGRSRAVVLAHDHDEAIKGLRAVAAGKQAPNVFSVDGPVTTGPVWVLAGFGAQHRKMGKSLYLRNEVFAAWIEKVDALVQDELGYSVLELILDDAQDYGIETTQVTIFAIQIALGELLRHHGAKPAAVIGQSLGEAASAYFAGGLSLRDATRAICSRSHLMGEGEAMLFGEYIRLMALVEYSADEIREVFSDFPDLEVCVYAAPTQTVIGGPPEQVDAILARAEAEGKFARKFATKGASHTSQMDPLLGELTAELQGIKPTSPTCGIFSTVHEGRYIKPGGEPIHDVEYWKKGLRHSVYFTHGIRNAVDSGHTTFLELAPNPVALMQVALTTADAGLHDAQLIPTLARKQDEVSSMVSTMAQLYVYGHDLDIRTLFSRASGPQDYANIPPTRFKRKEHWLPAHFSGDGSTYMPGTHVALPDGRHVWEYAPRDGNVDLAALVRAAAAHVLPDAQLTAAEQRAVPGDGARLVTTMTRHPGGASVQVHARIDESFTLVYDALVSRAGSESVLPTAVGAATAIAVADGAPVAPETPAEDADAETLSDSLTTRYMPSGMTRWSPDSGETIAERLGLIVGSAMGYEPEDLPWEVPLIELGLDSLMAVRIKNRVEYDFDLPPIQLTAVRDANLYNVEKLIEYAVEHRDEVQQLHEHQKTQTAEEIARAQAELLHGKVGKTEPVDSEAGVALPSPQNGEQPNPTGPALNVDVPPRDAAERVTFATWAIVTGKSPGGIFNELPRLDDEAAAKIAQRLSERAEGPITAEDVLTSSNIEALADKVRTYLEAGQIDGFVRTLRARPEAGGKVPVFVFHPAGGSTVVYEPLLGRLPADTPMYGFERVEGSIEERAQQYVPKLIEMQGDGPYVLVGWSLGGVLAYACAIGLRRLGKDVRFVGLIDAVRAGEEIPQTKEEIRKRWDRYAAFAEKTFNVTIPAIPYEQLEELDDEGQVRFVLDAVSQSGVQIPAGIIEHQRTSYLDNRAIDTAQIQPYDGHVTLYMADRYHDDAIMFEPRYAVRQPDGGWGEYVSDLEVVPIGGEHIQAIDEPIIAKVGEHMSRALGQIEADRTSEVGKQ

The filed quantity is “Percent Effect” (%).
The controls that fix the scale are not given in the record; negative values are as filed.
Compounds were drawn at random from those tested, without regard to their results.
A dash means the value is not listed here; it may have been measured.

| compound | PfKRS1 | TcHisRS | Pks13 thioesterase |
|---|---|---|---|
| `CC(C)c1nnc2n1CCN(C(=O)c1cc3cc(F)ccc3[nH]1)C2` | 1.031% | 5.747% | -4.167% |
| `Cc1ccc(C(=O)N2Cc3c(CN4CCCCC4)nn(C)c3C2)cc1C` | 5.533% | -10.38% | -9.429% |
| `CNC(=O)c1cccc(CN2CCN(c3ccncc3)CC2)c1` | 3.147% | 4.95% | -12.09% |
| `CSCC(=O)N(C)Cc1ccc(N(C)C)cc1` | 5.279% | 3.333% | - |
| `CC(C)C1CN(S(=O)(=O)N(C)C)CCCN1Cc1ccc(F)cc1` (stereo not drawn) | 3.754% | 10.34% | 5.056% |
| `CC(C(=O)N1CCCC1)n1nc(-c2cccs2)cc(N)c1=O` (stereo not drawn) | -0.3995% | 1.149% | -11.63% |
| `O=C(NCC1CC1)C1CN(C(=O)c2cccs2)CC12CCOCC2` (stereo not drawn) | 1.092% | 1.622% | -30.17% |
| `Cc1cc(N2CCN(C(=O)c3cc(Cl)c[nH]3)CC2)nc(C(C)C)n1` | -0.5388% | 9.184% | 6.321% |
| `CC(Cn1ccnc1)NS(=O)(=O)Cc1ccc(F)cc1` (stereo not drawn) | 1.481% | 8.021% | -57.79% |
| `COCC(=O)N1CCC2(COCc3cnc(N4CCOCC4)nc32)C1` (stereo not drawn) | -1.814% | 2.941% | -1.091% |
| `COc1ccc(CCN2CCCC(CN(C)Cc3[nH]cnc3C)C2)cc1` (stereo not drawn) | 1.542% | 1.22% | 19.11% |
| `CCn1cnnc1CNC(=O)NC(C)c1ccccn1` (stereo not drawn) | 3.093% | 4.611% | -8.062% |
| `Cc1ccc(CN2CCCC2(C(N)=O)c2cnccn2)c(C)c1` (stereo not drawn) | 1.15% | 11.11% | 7.168% |
| `CCN(CC)C(=O)Cn1ccc2cc(NC(=O)NC3CC3)ccc21` | 1.353% | 9.467% | -11.87% |
| `O=C(c1cccnc1)N1CCCC2(COCCN(c3ccccc3)C2)C1` (stereo not drawn) | -0.8631% | 4.327% | -8.673% |
| `O=C(CCN1CCOC1=O)N(Cc1ccncc1)CC1CCCO1` (stereo not drawn) | 2.062% | 3.982% | 1.312% |
| `NC(=O)CC1CCCCN1C(=O)c1ccc2cc[nH]c2c1` (stereo not drawn) | 0.3546% | 6.494% | -46.44% |
| `CCc1noc(C(C)N2CCN(CCOCC(F)(F)F)CC2)n1` (stereo not drawn) | 1.995% | 3.79% | -3.217% |
| `CO[C@@H]1CC[C@H]2[C@H]1OCCN2C(=O)COc1ccc(C)cc1` | 1.446% | 12.7% | -2.846% |
| `Cc1ccc(OCc2occc2C(=O)N2C[C@@H]3[C@@H](CN(C)C)[C@@H]3C2)cc1` | 8.48% | -0.8929% | -36.38% |
| `O=C(C(C1CC1)C1CC1)N1CCC(n2ccnn2)CC1` | -0.7047% | 6.358% | -29.04% |
| `CC(CNC(=O)c1ccc(F)cc1Cl)N1CCCC1` (stereo not drawn) | 2.498% | 3.252% | -7.497% |
| `CCOc1ccc(C2SCC(=O)Nc3c2c(=O)[nH]n3C(CC)CC)cc1` (stereo not drawn) | 5.112% | 5.325% | -24.12% |
| `Cc1nn(C)cc1CN(C)c1nccc(-c2cn(C)nc2C)n1` | 7.447% | 9.195% | -34.77% |
| `CCOc1cc(NC(=O)N2CCC(c3nnc[nH]3)CC2)ccc1C` | 0.4864% | 1.63% | -15.8% |
| `Cc1noc(C)c1CN(C)C(=O)C1CCCc2ccccc21` (stereo not drawn) | 1.827% | -1.754% | -12.36% |
| `O=C(NCc1ccco1)c1ccc(N2CCOCC2)cc1` | -1.235% | 5.366% | -1.845% |
| `CS(=O)(=O)N(Cc1ccon1)c1cccc(Br)c1` | 1.472% | 4.972% | -8.824% |
| `CCc1c(C(=O)N2CCOC(C)(C)C2)cnn1-c1ccccn1` | 5.566% | 1.064% | -8.766% |
| `CC(C)(C(=O)NCc1n[nH]c(=O)[nH]1)c1ccc(F)cc1` | -0.8704% | 9.091% | -6.377% |
| `CN(CCO)Cc1cc(=O)n2cc(Br)ccc2n1` | 3.034% | -12.5% | -10.75% |
| `O=C(NCCNc1ccccn1)NCC1CCS(=O)(=O)C1` (stereo not drawn) | -6.174% | 1.01% | 33.45% |
| `CCn1ccnc1CN1CCN(CC(O)c2ccc(OC)cc2)CC1` (stereo not drawn) | -1.468% | 2.353% | -19.35% |
| `CCc1ncc(CN2CCC(CCc3ccccc3)CC2)cn1` | 5.648% | 6.186% | 10.4% |
| `CC(=O)N1CCC(N2CC[C@H](c3nc4cc(C)ccc4o3)C2)CC1` | 8.495% | -0.4975% | -25.97% |
| `Cn1ccc(C(=O)N2CCC(Cc3cccc4cccnc34)C2)n1` (stereo not drawn) | 9.094% | 3.784% | -52.73% |
| `O=C(Cc1ccc(F)cc1)NCCNS(=O)(=O)c1ccc(F)c(F)c1` | 4.631% | 5.419% | -26.28% |
| `Cc1noc(C(C)C)c1C(=O)NCCC(=O)N1CCCCC1` | 2.006% | 2.286% | -10.91% |
| `Cc1nnc2n1CC(CNCc1nc(-c3cccs3)no1)CC2` (stereo not drawn) | -0.4931% | 3.175% | -26.55% |
| `CCN(Cc1cc(Cl)ccc1OC)Cc1nccn1C` | 1.374% | 9.36% | -13.85% |
| `Cc1cccc(-c2ncc(CNC(C)Cc3ncccc3C)cn2)c1` (stereo not drawn) | -4.61% | -1.299% | 26.28% |
| `Cc1ccnc(C2CCCN2C(=O)CN(C)C)n1` (stereo not drawn) | 1.118% | 6.742% | 4.252% |
| `CCC(NC(=O)CNCC(F)(F)F)c1cc(F)ccc1F` (stereo not drawn) | 8.501% | 7.328% | -52.65% |
| `COc1cc(CNC(C)Cn2cccn2)cc2c1OCO2` (stereo not drawn) | 11.73% | 5% | -3.041% |
| `CNc1nc2c(s1)C(c1c(F)cccc1Cl)CC(=O)N2` (stereo not drawn) | 69.96% | 52.17% | -30.07% |
| `Cn1nnc2cc(C(=O)N3CCC(Nc4cccnn4)CC3)ccc21` | -0.4244% | 0.5747% | -11.95% |

The last 5 entries again:

| compound | PfKRS1 | TcHisRS | Pks13 thioesterase |
|---|---|---|---|
| `Cc1ccnc(C2CCCN2C(=O)CN(C)C)n1` (stereo not drawn) | 1.118% | 6.742% | 4.252% |
| `CCC(NC(=O)CNCC(F)(F)F)c1cc(F)ccc1F` (stereo not drawn) | 8.501% | 7.328% | -52.65% |
| `COc1cc(CNC(C)Cn2cccn2)cc2c1OCO2` (stereo not drawn) | 11.73% | 5% | -3.041% |
| `CNc1nc2c(s1)C(c1c(F)cccc1Cl)CC(=O)N2` (stereo not drawn) | 69.96% | 52.17% | -30.07% |
| `Cn1nnc2cc(C(=O)N3CCC(Nc4cccnn4)CC3)ccc21` | -0.4244% | 0.5747% | -11.95% |

From ChEMBL document CHEMBL3988442, “University of Dundee, Small-Polar-MMV Screening Library” (2021).